In the supplement of paper PMC12889115:
This is one part of the list. These are raw signals, not scaled to a control.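 First-pass screen: polymyxin B was added at a level that permeabilizes the Salmonella outer membrane while sparing the inner membrane. DMSO wells, with and without polymyxin B, defined maximum growth. Because plates differed from one another, each plate's data were ranked separately and the compounds with the lowest OD600 were carried forward as hits.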

Test system: Salmonella enterica serovar Typhimurium SL1344
Test: bacterial growth OD600 after 18 h with compound and polymyxin B; higher = more bacterial growth (less inhibition)
Settings: 50 µM, Mueller-Hinton broth

| SMILES | bacterial growth OD600 (polymyxin B 0.75 µg/mL) | bacterial growth OD600 (polymyxin B 1 µg/mL) |
| --- | --- | --- |
| COCCO[C@H]1[C@H](NC(=O)C(C)C)c2ccccc2C12CCN(C(=O)c1ccc(OC)cc1)CC2 | 0.975 |  |
| Cc1cccc(-n2ccnc2[C@@H]2C[C@H]3CN(c4ccccc4)C(=O)[C@]34CCCN24)c1 | 1.01 |  |
| COc1ccc(-c2nn(-c3ccccc3)cc2CN(C)C(C)c2ccon2)c(F)c1 (centres undefined) |  | 0.336 |
| OCCC1CN(Cc2cnn(-c3cccc(F)c3)c2)CCN1Cc1ccccc1F (centres undefined) |  | 0.954 |
| O=C(NCCCc1ccccc1)C1CC(Cc2cccc(F)c2)=NO1 (centres undefined) | 0.715 |  |
| COc1cc(CN2CCN(Cc3cc(C)cc(C)c3)CC2CCO)cc(OC)c1 (centres undefined) |  | 0.859 |
| CCCn1cc(CN(C)CC2CCCN(CCc3ccc(OC)cc3)C2)c(C)n1 (centres undefined) |  | 0.836 |
| O=C1N(CC2CC2)CCCC1(O)CN1CCC(Cc2ccccc2)CC1 (centres undefined) |  | 0.879 |
| CC(C)CCN1CCOc2ccc(C(C)(O)COc3ccccc3)cc2C1 (centres undefined) | 0.792 |  |
| CCC1CN(CCNC(=O)CCc2c(C)noc2C)Cc2cc(OC)ccc2O1 (centres undefined) | 0.877 |  |
| COCCC(=O)N1CCCC(N2CCN(c3cccc(Cl)c3)CC2)C1 (centres undefined) |  | 0.923 |
| CC(C)CC(=O)Nc1ccnn1C1CCN(Cc2ccc3nsnc3c2)CC1 |  | 1.17 |
| O=C(c1ccccc1F)N1CCC(C2(c3ccccn3)NC(=O)N(CCc3cccs3)C2=O)CC1 (centres undefined) | 0.837 |  |
| Cc1c(C(C)NC(=O)NC(C)C)cnn1-c1cccc2ccccc12 (centres undefined) |  | 0.962 |
| CN(C)c1ccccc1C(=O)N1CCCC(Nc2ccc(F)cc2)C1 (centres undefined) |  | 0.833 |
| CO[C@H]1[C@H](NC(=O)c2ccccn2)c2ccccc2C12CCN(C(=O)C1=CCCC1)CC2 | 0.847 |  |
| CCN1CCN(C2(C(=O)N3CCN4CCCC4C3)Cc3ccccc3C2)CC1 (centres undefined) | 0.947 |  |
| COC(=O)[C@@H]1CCCN1C(=O)Cc1ccc(N2CCC(NCCc3cccs3)CC2)cc1 | 0.792 |  |
| CCOC(=O)C1(Cc2ccccc2F)CCCN(C(=O)C(=O)c2ccco2)C1 (centres undefined) |  | 0.921 |

Two successive records out of the list so far, quoted:

| SMILES | bacterial growth OD600 (polymyxin B 0.75 µg/mL) | bacterial growth OD600 (polymyxin B 1 µg/mL) |
| --- | --- | --- |
| CCCn1cc(CN(C)CC2CCCN(CCc3ccc(OC)cc3)C2)c(C)n1 (centres undefined) |  | 0.836 |
| O=C1N(CC2CC2)CCCC1(O)CN1CCC(Cc2ccccc2)CC1 (centres undefined) |  | 0.879 |
